# Values from PubChem BioAssay AID743121 (NCATS, 2013)
# Aim: 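Knock-downs that sensitise breast cancer cells to camptothecin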 (primary screen)
# Cell system: MDA-MB-231 cells, a human breast cancer line
# Reagents: single siRNA against human genes, 20 nM siRNA (0.8 pmol per well)
# Timing: 120 h (drug added 48 h after transfection, read 72 h later)
# Challenge: camptothecin 20 nM (about EC30) for 72 h; vehicle 0.1% DMSO in parallel plates
# Measurement: 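CellTiter-Glo ATP signal, scaled to control siRNA as percent viability; sensitisation given as log2 of untreated divided by camptothecin-treated viability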
# Reading the numbers: log2 vehicle/camptothecin viability: higher = stronger sensitisation to camptothecin; viability with camptothecin and viability without drug: higher = more viable cells
# Active means: 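Each gene scored by redundant siRNA activity (RSA) over its individual siRNA ratios; a gene is called active at p < 0.001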
# Shown is a random part of about 26,000 reagents. 167 of all reagents (0.63%) were called active. 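Calls are per gene from RSA p-values that are not deposited; an individual active-marked siRNA can sensitise only weakly.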 Entries without a mark were called inactive. Reagents against one gene are numbered here. Reagent sequences are not shown.
The first 2 entries, to show the layout:
gene,siRNA no.,log2 vehicle/camptothecin viability,viability with camptothecin (% of control),viability without drug (% of control)
ALCAM,1,0.913,32.2,60.7
ALCAM,2,0.418,74.7,99.8

Results, from the start:
gene,siRNA no.,log2 vehicle/camptothecin viability,viability with camptothecin (% of control),viability without drug (% of control)
ALCAM,1,0.913,32.2,60.7
ALCAM,2,0.418,74.7,99.8
ALCAM,3,-0.041,86.2,83.8
ALCAM,4,-0.135,88.6,80.7
YEATS4,1,-0.517,75.5,52.8
YEATS4,2,1.05,43.8,90.5
YEATS4,3,0.00372,68.1,68.3
IL1RAPL1,1,-0.312,61.5,49.6
IL1RAPL1,2,0.0748,105,111
IL1RAPL1,3,-0.0078,55.4,55.1
IL1RAPL1,4,-0.0616,70.5,67.5
ADGRG5,1,-0.466,84.9,61.5
ADGRG5,2,-0.131,92.8,84.7
ADGRG5,3,-0.129,108,98.8
ADGRG5,4,0.767,34.9,59.5
PSMA2,1,-0.29,20.9,17.1
PSMA2,2,-0.115,24,22.1
PSMA2,3,1.27,2.84,6.82
PSMA2,4,-0.625,29.3,19
SIRPB1,1,-0.302,123,99.8
SIRPB1,2,-0.182,72.7,64
SIRPB1,3,-0.03,61.2,59.9
SIRPB1,4,0.0297,34.2,34.9
SIRPB1,5,-0.584,81.4,54.3
SIRPB1,6,-0.193,62.3,54.5
RAB8A,1,-0.678,128,80.1
RAB8A,2,0.128,57.8,63.2
RAB8A,3,0.143,78.8,87
RAB8A,4,-0.137,91.7,83.4
